# Test results reported in US4826856A, “Calcium antagonistic dihydropyridine derivative” (Yason s.r.l., priority 1985, dated 1989).
# At least one compound was matched to its structure with a doubt left.
# Tests used:
# Sprague-Dawley rats [1] = assay: Ventricular arrhythmias after re-circulation; type: in vivo, rat
# Protocol: (§1) Ventricular arrhythmias after coronary artery ligation in the acute phase or during the period of re-circulation
# (§2) Sprague-Dawley rats were subjected to ligation of the left coronary artery according to the method of Clark et al. in J. Pharmacol. Methods 3, 357-368, 1980. The drugs were administered by gastric tube 30 minutes before the ligation. By means of a continuous electrocardiographic recording, the ventricular arrhythmias such as ectopic beats (EB), ventricular tachycardia (VT), ventricular fibrillation (VF) for 30 minutes after ligation, were recorded.
# SHR-SP = assay: Effect on blood pressure in 6 month old SHR-SP (intraduodenal); type: in vivo, rat; conditions: 15 mg/kg intraduodenal
# Text: (§3) Comparative effect of YS 201 on 3 month old rats and 6 month old SHR-SP
# [2] = tested on: spontaneously hypertensive rats (SHR); assay: In vivo studies on spontaneously hypertensive rats; design: species or system rat; conditions: especially intraduodenal route
# post-oligoemic rats = assay: Transient cerebral oligoemia in the rat, cerebral water, K+ and Ca++ content; type: in vivo; conditions: p.o.
# Protocol: Transient cerebral oligoemia in the rat
# The method described by Borzeix in Circulation et Metabolisme du Cerveau 1, 63-79, John Libbey Eurotext Publ. […] The animals were treated by the oral route with the tested drugs twice a day, starting one hour after the ligation and for 3 days, in scalar doses.
# The last dose, at the 71th hour after the occlusion, preceeded by one hour the sacrifice of the animal, whose brain was subjected to the determination of the H2 O, K^+ and Ca^++ content.
# renal hypertensive rats = assay: Blood pressure in renal hypertensive rats; type: in vivo, rat; conditions: twice a day s.c. for 10 days
# Hartley guinea pigs = assay: Anaphylactic bronchoconstriction in actively sensitized guinea-pigs; type: in vivo, guinea-pig
# Sprague-Dawley rats [3] = assay: Ventricular arrhythmias during coronary artery ligation period; type: in vivo, rat
# Protocol: as §1, §2
# normotensive rats = assay: Effect on blood pressure in normotensive rats (intraduodenal); type: in vivo, rat; conditions: 15 mg/kg intraduodenal
# Protocol: as §3
# YS 201 was given by intraduodenal route at 15 mg/kg in normotensive rats.
# Rat thoracic aorta = assay: Inhibition of the contractile response of rat thoracic aorta strips in vitro
# Protocol: 1. Inhibition of the contractile response of arterial vessels in vitro
# Aortic strips (3 mm wide) were dissected from rat thoracic aorta and bathed in a Krebs-Henseleit solution bubbled with O2 :CO2 (95:5) at 38° C., under a tension of 2 g. After a 30-minutes stabilization period, a contraction was induced by adding either KCl (118 mM) or noradrenaline (10^-5 M.l^-1) in a calcium-free medium (Na EDTA 0.1 mM.l^-1) or noradrenaline (10^-5 M.l^-1) after readmission of calcium (CaCl2 1.25 mM.l^-1).
# SHR aorta = SHR aorta pretreatment study (PE or K+ contraction); design: species or system spontaneously hypertensive rat (SHR)
# Protocol: 1.3. SHR aorta--Pretreatment study
# SHR aorta were treated with either PE(1 μM) or high potassium (K^+, 80 mM) and the resulting contraction was allowed to sustain for 15 Minutes. After wash out and equilibration (1 hour), tissues were pretreated with a single concentration of either YS 201 or nifedipine. After a 30-minutes equilibration time, tissues were again challenged with either PE or K^+ and the resultant contraction compared to the initial contraction. Contractile effect was measured at 15 minutes after the addition of the agonist (PE or K^+).
smiles,measurement,setting,value
"CCOC(=O)C1=C(C)NC(C)=C(C(=O)OCCN2CCCCC2)C1c1cccc([N+](=O)[O-])c1 (stereo not drawn) [YS 201, ethyl-(β-piperidinoethyl)-2,6-dimethyl-4-(3-nitrophenyl)-1,4-dihydropyridine-3,5-dicarboxylate]",early ECG disturbances following release of the clamps,Sprague-Dawley rats [1]; 7.5 and 15 mg/kg,lowers in a highly significant manner
same,inhibition of arrhythmias after re-circulation vs reference drugs,"Sprague-Dawley rats [1]; rat, in vivo",more potent than that of the reference drugs
same,reduction in DBP vs SBP,SHR-SP,more marked reduction in DBP than in SBP
same,in vivo activity in SHR,[2],"potent, dose dependent activity"
same,Ca++ accumulation into the brain,post-oligoemic rats,impedes the Ca^++ ions to accumulate into the brain
same,K+ efflux from the brain,post-oligoemic rats,prevents the K^+ efflux from the brain
same,edematous reaction,post-oligoemic rats,suppresses any edematous reaction
same,pressure increase elicited by anxiety and effort,renal hypertensive rats,reducing also the pressure increase elicited by anxiety and effort
same,resting blood pressure,renal hypertensive rats,significantly reduces the resting blood pressure
same,effect on lung elasticity per se,Hartley guinea pigs; 5 mg/kg s.c.,minor effect on lung elasticity per se
same,inspiratory and expiratory volumes,Hartley guinea pigs; 5 mg/kg s.c.,increase of the inspiratory and the expiratory volumes
same,inspiratory or expiratory volumes,Hartley guinea pigs; 10 mg/kg s.c.,not increased
same,pulmonary compliance,Hartley guinea pigs; 10 mg/kg s.c.,act directly on pulmonary compliance by increasing it
same,pulmonary resistance,Hartley guinea pigs; 10 mg/kg s.c.,decreasing the pulmonary resistance
same,protection against ovalbumin-challenge inducing anaphylactic bronchoconstriction,Hartley guinea pigs; s.c.,can protect the guinea-pig
same,effect on duration of VF episodes,Sprague-Dawley rats [3]; ligation period,does not interfere with the duration of VF episodes
same,percentage of rats exhibiting VT,"Sprague-Dawley rats [3]; ligation period, 1.5 mg/kg",significantly reduced
same,effect on arrhythmias,Sprague-Dawley rats [3]; p.o.,reduce dramatically the arrhythmias
same,systolic pressure,normotensive rats,significantly reduced
same,"reduction of diastolic blood pressure (DBP), significance",normotensive rats; 60 min,still significant
same,activity on contractions induced by K+ and by Ca++ plus noradrenaline vs reference compounds,Rat thoracic aorta,considerably more active than the reference compounds
same,"inhibition of K+-induced contractions, SHR aortic strips",SHR aorta,extremely potent inhibitors
